PubChem BioAssay AID1224830 – NIAID, 2016
Assay: 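Host factors that control LPS-induced TNF expression in human macrophages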 (primary screen). Cells: human THP-1 monocytic leukaemia cells, TNF dual-luciferase reporter clone, PMA-differentiated to macrophage-like cells. Reagent: siRNA pool against human genes, 50 nM. Time to read-out: LPS for 4 h, given about 3 days after siRNA transfection. Conditions: bacterial LPS (TLR4 ligand), 10 ng/ml. Measurement: 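TNF firefly reporter luminescence divided by renilla, normalised to the plate median, then turned into a robust z-score for each replicate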. Reading the numbers: TNF reporter robust z-score: higher = stronger TNF reporter response to LPS. Call rule: 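a well is active when its z-score exceeds 2.8 or falls below -1.5; control wells carry no call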.
The whole screen tested about 18,000 reagents; shown is a random part of them. About 2,900 of them (16%) were called active. 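Calls are made per well; low scores hint the gene aids the LPS response, high scores that it dampens it.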 Repeated entries: four replicate wells of each siRNA pool. No sequences are given here.

gene | TNF reporter robust z-score | call
ZNF681 (zinc finger protein 681) | -1.34 | inactive
ZNF681 (zinc finger protein 681) | -0.74 | inactive
ZNF681 (zinc finger protein 681) | -0.91 | inactive
ZNF681 (zinc finger protein 681) | -0.68 | inactive
IQUB (IQ motif and ubiquitin domain containing) | 0.12 | inactive
IQUB (IQ motif and ubiquitin domain containing) | -0.17 | inactive
IQUB (IQ motif and ubiquitin domain containing) | 0.33 | inactive
IQUB (IQ motif and ubiquitin domain containing) | 0.82 | inactive
CEP170B (centrosomal protein 170B) | -0.74 | inactive
CEP170B (centrosomal protein 170B) | -0.7 | inactive
CEP170B (centrosomal protein 170B) | -1.39 | inactive
CEP170B (centrosomal protein 170B) | -0.79 | inactive
PPP1R15B (protein phosphatase 1 regulatory subunit 15B) | -1.6 | active
PPP1R15B (protein phosphatase 1 regulatory subunit 15B) | -0.8 | inactive
PPP1R15B (protein phosphatase 1 regulatory subunit 15B) | -0.49 | inactive
PPP1R15B (protein phosphatase 1 regulatory subunit 15B) | -1.26 | inactive
ACBD6 (acyl-CoA binding domain containing 6) | -0.39 | inactive
ACBD6 (acyl-CoA binding domain containing 6) | -0.55 | inactive
ACBD6 (acyl-CoA binding domain containing 6) | -0.56 | inactive
CUL3 (cullin 3) | 0.32 | inactive
CUL3 (cullin 3) | 0.84 | inactive
CUL3 (cullin 3) | 4.61 | active
CUL3 (cullin 3) | 2.93 | active
HLA-DRA (major histocompatibility complex, class II, DR alpha) | -0.36 | inactive
HLA-DRA (major histocompatibility complex, class II, DR alpha) | -0.14 | inactive
HLA-DRA (major histocompatibility complex, class II, DR alpha) | -0.22 | inactive
HLA-DRA (major histocompatibility complex, class II, DR alpha) | -0.1 | inactive
ZNF275 (zinc finger protein 275) | 1.94 | inactive
ZNF275 (zinc finger protein 275) | 1.55 | inactive
ZNF275 (zinc finger protein 275) | 0.9 | inactive
ZNF275 (zinc finger protein 275) | 1.43 | inactive
PPM1K (protein phosphatase, Mg2+/Mn2+ dependent 1K) | -0.04 | inactive
PPM1K (protein phosphatase, Mg2+/Mn2+ dependent 1K) | -0.5 | inactive
PPM1K (protein phosphatase, Mg2+/Mn2+ dependent 1K) | -1.2 | inactive
PPM1K (protein phosphatase, Mg2+/Mn2+ dependent 1K) | 0.07 | inactive
SRGAP2 (SLIT-ROBO Rho GTPase activating protein 2) | -0.49 | inactive
SRGAP2 (SLIT-ROBO Rho GTPase activating protein 2) | -0.3 | inactive
SRGAP2 (SLIT-ROBO Rho GTPase activating protein 2) | -1.13 | inactive
SRGAP2 (SLIT-ROBO Rho GTPase activating protein 2) | 1.77 | inactive
BRAF (B-Raf proto-oncogene, serine/threonine kinase) | -1.33 | inactive
BRAF (B-Raf proto-oncogene, serine/threonine kinase) | -1.01 | inactive
BRAF (B-Raf proto-oncogene, serine/threonine kinase) | -1.23 | inactive
BRAF (B-Raf proto-oncogene, serine/threonine kinase) | -0.7 | inactive
MSL3 (MSL complex subunit 3) | -2.05 | active
MSL3 (MSL complex subunit 3) | -1.73 | active
MSL3 (MSL complex subunit 3) | -1.47 | inactive
MSL3 (MSL complex subunit 3) | -1.67 | active
ZNF672 (zinc finger protein 672) | -0.94 | inactive
ZNF672 (zinc finger protein 672) | -1.08 | inactive
ZNF672 (zinc finger protein 672) | -0.98 | inactive
ZNF672 (zinc finger protein 672) | -0.65 | inactive
ENDOV (endonuclease V) | 4.21 | active
ENDOV (endonuclease V) | 2.4 | inactive
ENDOV (endonuclease V) | 3.96 | active
ENDOV (endonuclease V) | 4.33 | active
ATP5F1A (ATP synthase F1 subunit alpha) | 1.65 | inactive
ATP5F1A (ATP synthase F1 subunit alpha) | 1.49 | inactive
ATP5F1A (ATP synthase F1 subunit alpha) | 1.06 | inactive
ATP5F1A (ATP synthase F1 subunit alpha) | 0.05 | inactive
AZI2 (5-azacytidine induced 2) | -0.58 | inactive
AZI2 (5-azacytidine induced 2) | 0.42 | inactive
AZI2 (5-azacytidine induced 2) | 0.02 | inactive
AZI2 (5-azacytidine induced 2) | -0.18 | inactive
MRPS6 (mitochondrial ribosomal protein S6) | 0 | inactive
MRPS6 (mitochondrial ribosomal protein S6) | -0.6 | inactive
MRPS6 (mitochondrial ribosomal protein S6) | -0.11 | inactive
MRPS6 (mitochondrial ribosomal protein S6) | -0.29 | inactive
MRPL35 (mitochondrial ribosomal protein L35) | 0.96 | inactive
MRPL35 (mitochondrial ribosomal protein L35) | 1.33 | inactive
MRPL35 (mitochondrial ribosomal protein L35) | 0.97 | inactive
MRPL35 (mitochondrial ribosomal protein L35) | 1.15 | inactive
NELFB (negative elongation factor complex member B) | 2.4 | inactive
NELFB (negative elongation factor complex member B) | 3.16 | active
NELFB (negative elongation factor complex member B) | 3.22 | active
NELFB (negative elongation factor complex member B) | 0.47 | inactive
ANKRD13D (ankyrin repeat domain 13D) | -0.15 | inactive
ANKRD13D (ankyrin repeat domain 13D) | 0.04 | inactive
ANKRD13D (ankyrin repeat domain 13D) | -0.75 | inactive
ANKRD13D (ankyrin repeat domain 13D) | -0.47 | inactive
IGF2BP2-AS1 (IGF2BP2 antisense RNA 1) | -0.35 | inactive
IGF2BP2-AS1 (IGF2BP2 antisense RNA 1) | 0.36 | inactive
IGF2BP2-AS1 (IGF2BP2 antisense RNA 1) | -0.36 | inactive
IGF2BP2-AS1 (IGF2BP2 antisense RNA 1) | -0.48 | inactive
NFATC3 (nuclear factor of activated T cells 3) | -0.5 | inactive
NFATC3 (nuclear factor of activated T cells 3) | 0.75 | inactive
NFATC3 (nuclear factor of activated T cells 3) | 1.03 | inactive
NFATC3 (nuclear factor of activated T cells 3) | 1.31 | inactive
ZNF154 (zinc finger protein 154) | -0.97 | inactive
ZNF154 (zinc finger protein 154) | -0.88 | inactive
ZNF154 (zinc finger protein 154) | 0.95 | inactive
ZNF154 (zinc finger protein 154) | -0.45 | inactive
PRELID1 (PRELI domain containing 1) | 0.35 | inactive
PRELID1 (PRELI domain containing 1) | 1.33 | inactive
PRELID1 (PRELI domain containing 1) | 0.01 | inactive
PRELID1 (PRELI domain containing 1) | 1.45 | inactive
OR10A2 (olfactory receptor family 10 subfamily A member 2) | -0.75 | inactive
OR10A2 (olfactory receptor family 10 subfamily A member 2) | -0.29 | inactive
OR10A2 (olfactory receptor family 10 subfamily A member 2) | -0.34 | inactive
OR10A2 (olfactory receptor family 10 subfamily A member 2) | -0.82 | inactive
STAR (steroidogenic acute regulatory protein) | -0.02 | inactive
STAR (steroidogenic acute regulatory protein) | 1.35 | inactive
STAR (steroidogenic acute regulatory protein) | 1.11 | inactive
STAR (steroidogenic acute regulatory protein) | 1.73 | inactive
C6orf47 (chromosome 6 open reading frame 47) | -0.27 | inactive
C6orf47 (chromosome 6 open reading frame 47) | 0.8 | inactive
C6orf47 (chromosome 6 open reading frame 47) | 0.4 | inactive
C6orf47 (chromosome 6 open reading frame 47) | -0.64 | inactive
UGT1A8 (UDP glucuronosyltransferase family 1 member A8) | -1.05 | inactive
UGT1A8 (UDP glucuronosyltransferase family 1 member A8) | -0.58 | inactive
UGT1A8 (UDP glucuronosyltransferase family 1 member A8) | -0.5 | inactive
UGT1A8 (UDP glucuronosyltransferase family 1 member A8) | -0.86 | inactive

Laid out differently: 5 of the entries above
gene,TNF reporter robust z-score,call
"BRAF (B-Raf proto-oncogene, serine/threonine kinase)",-0.7,inactive
MSL3 (MSL complex subunit 3),-2.05,active
MSL3 (MSL complex subunit 3),-1.73,active
MSL3 (MSL complex subunit 3),-1.47,inactive
MSL3 (MSL complex subunit 3),-1.67,active
